{"source": "patent US6140364A", "about": "“Arachidonic acid metabolite, 16-HETE” (The University of Vermont and State Agricultural College, priority 1996, dated 2000)", "assay": "Amounts of HETE in intact human neutrophil phospholipids, GC/MS", "conditions": "following alkaline hydrolysis (0.1 N potassium hydroxide), three donors, average ± SEM", "data": [{"smiles": "O=C(O)CCC/C=C\\C/C=C\\C/C=C\\C/C=C\\CCCCCO", "note": "[20-HETE, reference compound]", "values": [{"measurement": "amount of HETE released from neutrophil phospholipids", "value": "341±69", "unit": "pg/10^8 cells"}]}]}
